*: point of attachment. Tos = Cc1ccc(S(=O)(=O)*)cc1; Boc = CC(C)(C)OC(=O)*; OcHex = C1CCC(O*)CC1; Bn = c1ccc(C*)cc1
Assay: general procedure: Boc solid-phase peptide synthesis; benzhydrylamine-polystyrene resin (0.5 mmol/g); p-methylbenzhydrylamine-resin (0.3 mmol/g); active ester method, mixed anhydride method, DCC-HOBt (fragment condensation)
Conditions: coupling step

Q: For Boc-AS(Bn)ILGS(Bn)R(Tos)T(Bn)-NH2, which step yield is on record?
A: Its step yield is 85.9%.

Q: With Boc-ILGS(Bn)R(Tos)T(Bn)-NH2 as the substance, how does the step yield read?
A: Its step yield is 89.1%.

Q: Which step yield does the source give for Boc-LALQ-OH here?
A: Its step yield is 62.5%.

Q: For “Boc-Lys(Cl·Z)-Leu-Ala-Leu-Gln-Lys(Cl·Z)-Tyr(Cl₂·Bzl)-Leu-Ala-Ser(Bzl)-Ile-Leu-Gly-Ser(Bzl)-Arg(Tos)-Thr(Bzl)-NH₂”, which step yield is on record?
A: The step yield was 85.9%.

Q: Which step yield does the source give for “Boc-Lys(Cl·Z)-Tyr(Cl₂·Bzl)-Leu-Ala-Ser(Bzl)-Ile-Leu-Gly-Ser(Bzl)-Arg(Tos)-Thr(Bzl)-NH₂” here?
A: The step yield was 87.4%.

Q: With Boc-S(Bn)ILGS(Bn)R(Tos)T(Bn)-NH2 as the substance, how does the step yield read?
A: The step yield was 66.8%.

Q: For Boc-Thr(Bzl)-Lys(Cl·Z)-Leu-Leu-Ala-OH, which step yield is on record?
A: The step yield was 72.1%.

Q: Which step yield does the source give for “Boc-Tyr(Cl₂·Bzl)-Thr(Bzl)-Lys (Cl·Z)-Leu-Leu-Ala-Lys(Cl·Z)-Leu-Ala-Leu-Gln-Lys(Cl·Z)-Tyr(Cl₂·Bzl)-Leu-Ala-Ser(Bzl)-Ile-Leu-Gly-Ser(Bzl)-Arg (Tos)-Thr(Bzl)-NH₂” here?
A: Its step yield is 99.4%.

Q: With Boc-VFT(Bn)D(OcHex)N-OH as the substance, how does the step yield read?
A: The step yield was 60.0%.

Q: For “Boc-Val-Phe-Thr(Bzl)-Asp(OcHex)-Asn-Tyr (Cl₂·Bzl)-Thr(Bzl)-Lys(Cl·Z)-Leu-Leu-Ala-Lys(Cl·Z)-Leu-Ala-Leu-Gln-Lys(Cl·Z)-Tyr(Cl₂·Bzl)-Leu-Ala-Ser(Bzl)-Ile-Leu-Gly-Ser(Bzl)-Arg(Tos)-Thr(Bzl)-NH₂”, which step yield is on record?
A: The step yield was 74.1%.

Assay: peptide synthesis
Conditions: coupling step

Q: For Boc-FT(Bn)D(OcHex)N-OH, which step yield is on record?
A: The step yield was 88.3%.

Q: For Boc-His(Tos)-Ser(Bzl)-Asp(OcHex)-Ala-OH, which step yield is on record?
A: Its step yield is 53.0%.

Q: With Boc-LGS(Bn)R(Tos)T(Bn)-NH2 as the substance, how does the step yield read?
A: Its step yield is 90.7%.

Q: For Boc-Lys (Cl·Z)-Leu-Ala-Leu-Gln-OH, which step yield is on record?
A: The step yield was 82.1%.

Q: For Boc-Lys(Cl·Z)Leu-Leu-Ala-OH, which step yield is on record?
A: The step yield was 94.0%.

Q: For “Boc-Tyr(Cl₂·Bzl)-Thr(Bzl)-Lys(Cl·Z)-Leu-Leu-Ala-OH”, which step yield is on record?
A: The step yield was 99.8%.

From patent publication EP0450100A1 (MEIJI SEIKA KAISHA LTD., priority 1989, dated 1991)
